From PubChem BioAssay AID540276 (National Center for Advancing Translational Sciences (NCATS), 2011)
Hit rate of the full screen: of about 300,000 compounds, about 5,400 (1.8%) were called active. This list was built around the results that the source calls inconclusive (neither active nor inactive); the mix of calls is not that of the screen. The call rests on the fitted dose curve; tested in HEK293 cells. Where the call is inconclusive, the potency comes from a doubtful curve fit.

Assay: qHTS for inhibitors of binding or entry into cells for Marburg Virus
Conditions: Marburg virus pseudotyped entry inhibition, cell reporter; activity change, negative = inhibition: at 37.8 µM (top of the series) unless noted
On the % scale 0 is the no-effect control and ±100 the full control effect; potency means the concentration at half of the fitted maximal effect.

| Compound | Potency | activity change, negative = inhibition |
| --- | --- | --- |
| COc1ccc(-c2csc(C)n2)cc1 | inactive | – |
| CCCC(=O)Nc1ccc(NC(=O)c2ccccc2)nc1 | inconclusive: 7.94 µM [inhibitor, partial curve, poor fit] | – |
| COc1ccc(N2CCN(C(=O)CN(CCc3ccccc3)S(C)(=O)=O)CC2)cc1 | inconclusive: 6.51 µM [inhibitor, partial curve, poor fit] | – |
| O=C(Nc1cc(S(=O)(=O)Nc2ccccc2Cl)ccc1O)c1sc2cc(Cl)ccc2c1Cl | inconclusive: 14.1 µM [activator, single point] | – |
| Cc1ccnc(Nc2nc3ccccc3s2)n1 | inconclusive: 7.08 µM [inhibitor, full curve, poor fit] | – |
| COc1ccc(-c2noc(CCC(=O)Nc3ccc(C)c(C)c3)n2)cc1 | inactive | – |
| COC(=O)c1sc(NC(=S)NC(=O)c2ccccc2Cl)nc1C | inconclusive: 1.16 µM [activator, partial curve] | – |
| COc1cccc(NC(=O)CCNC(=O)Cn2cnc3ccccc3c2=O)c1 | inactive | – |
| Cc1cc(NC(=NC2CC2)c2ccccc2)n(-c2ccccc2)n1 | inactive | – |
| O=S(=O)(Nc1ccc(OC(F)F)cc1)c1ccc(-c2ccon2)s1 | inconclusive: 17.8 µM [inhibitor, partial curve, poor fit] | – |
| Cc1cc(Br)ccc1NC(=O)c1sc2ncnc(N3CCN(c4ccccn4)CC3)c2c1C | inconclusive: 12.6 µM [inhibitor, single point] | – |
| Cc1cc(C)c(C(=O)CSc2n[nH]c(-c3ccncc3)n2)c(C)c1 | – | inconclusive: 47.6% [activator] [at 46.1 µM] |
| COc1cc(OC)c(NC(=O)Nc2ccc3c(c2)N(C)C(=O)c2ccccc2S3)cc1Cl | active: 10 µM | – |
| COc1ccccc1CCn1cnc2c3cc(C)ccc3n(C)c2c1=O | inconclusive: 13 µM [inhibitor, partial curve, poor fit] | – |
| COc1ccc(N=Cc2ccc(N(CCC#N)CCC#N)cc2)cc1 | inactive | – |
| CC(=O)c1ccc(S(=O)(=O)NCc2ccc(C(=O)NCC(c3ccccc3)N(C)C)cc2)cc1 (stereo not drawn) | inconclusive: 35.5 µM [inhibitor, single point] | – |
| NS(=O)(=O)c1ccc(NC(=O)c2cc(=O)c3ccccc3o2)cc1 | inactive | – |
| CCCOC(=O)c1c(NC(=O)CCCn2nc([N+](=O)[O-])cc2C)sc(C(=O)OC)c1C | inconclusive: 35.5 µM [inhibitor, partial curve, poor fit] | – |
| CCOC(=O)C1CCN(C(c2cc3ccc(C)cc3[nH]c2=O)c2nnnn2C2CCCCC2)CC1 (stereo not drawn) | inconclusive: 11.6 µM [inhibitor, partial curve, poor fit] | – |
| O=C(Nc1nnc(-c2ccncc2)o1)C1CCCCC1 | inconclusive: 1.58 µM [activator, single point] | – |
| COC(=O)c1c(-c2ccc(F)cc2)csc1NC(=O)C1CCCO1 (stereo not drawn) | inconclusive: 10 µM [inhibitor, partial curve, poor fit] | – |
| COc1ccc(NC(=O)c2oc3ccccc3c2NC(=O)c2cc3ccccc3o2)c(OC)c1 | inactive | – |
| CC(=O)c1cc(F)ccc1OCC(=O)N1CCCc2ccccc21 | inconclusive: 3.98 µM [inhibitor, partial curve, poor fit] | – |

| Compound | Potency | activity change, negative = inhibition |
| --- | --- | --- |
| O=C1/C(=C\c2ccc(O)c(O)c2)N=C2CCCCCN12 | inactive | – |
| CCCCOC(=O)NC(NCC(O)c1ccccc1)(C(F)(F)F)C(F)(F)F (stereo not drawn) | inconclusive: 29.1 µM [inhibitor, single point] | – |
| COc1ccc(-n2ccsc2=S)cc1 | inconclusive: 0.0517 µM [inhibitor, partial curve, poor fit] | – |
| Cc1ccc(F)cc1NC(=O)CSc1nc(-c2cccs2)cc(C(F)(F)F)n1 | inactive | – |
| Cc1c(C=O)c2cc(OCc3ccccc3)ccc2n1C | inconclusive: 3.55 µM [activator, partial curve, poor fit] | – |
| Cn1ncc2cc(NC(=S)NC(=O)c3ccccc3)ccc21 | inactive | – |
| O=C(O)C1CCC(Cn2c(SCc3cc(=O)n4cc(Cl)ccc4n3)nc3ccsc3c2=O)CC1 (stereo not drawn) | inactive | – |
| COc1cc(CN2CCN(Cc3ccccc3C(F)(F)F)CC2)cc(OC)c1OC | inconclusive: 7.94 µM [inhibitor, partial curve, poor fit] | – |
| O=C(CC(Nc1ccccc1Cl)C(=O)OCC(=O)c1cccs1)c1ccccc1 (stereo not drawn) | inactive | – |
| Cn1c(SCC(=O)NC2CCCCC2)nnc1-c1ccncc1 | inconclusive: 0.562 µM [activator, full curve, poor fit] | – |
| COc1ccc(C)cc1S(=O)(=O)N1CCCC(C(=O)NC2CC2)C1 (stereo not drawn) | inactive | – |
| O=C(Cc1ccccc1F)Nc1nc(-c2ccc(F)cc2)cs1 | inconclusive: 11.2 µM [inhibitor, partial curve, poor fit] | – |
| CN(C)c1ccnc(Nc2ccc(F)cc2)c1C#N | inconclusive: 0.562 µM [activator, full curve, poor fit] | – |
| CCn1c(C(=O)N2CCCC(C(=O)O)C2)cc2sccc21 (stereo not drawn) | inactive | – |
| CC1CCN(CCCCOc2ccccc2Br)CC1 | inconclusive: 11.6 µM [inhibitor, partial curve, poor fit] | – |
| CC(=O)OC1C(O)C(C)OC(OC2C(OC(=O)C3CCC4C(C3)OC3(CC(OC(=O)/C=C/c5ccccc5)C(C)CO3)C43CO3)OC(C)C(O)C2OC(C)=O)C1O (stereo not drawn) | inconclusive: 0.0891 µM [inhibitor, full curve, poor fit] | – |
| CCCc1cc(=O)oc2cc(OC(C)C(=O)NCCCn3ccnc3)ccc12 (stereo not drawn) | inconclusive: 10 µM [inhibitor, partial curve, poor fit] | – |
| CCCCc1ccc(NC(=O)CSc2nc3ccccc3nc2N2CCCCC2)cc1 | inactive | – |
| Oc1ccccc1/C=N/Nc1nccnc1Cl | inconclusive: 4.11 µM [inhibitor, full curve, poor fit] | – |
| CCc1ccc(C(=O)CSc2nc3cc(S(=O)(=O)N4CCOCC4)ccc3n2CC)cc1 | inconclusive: 0.316 µM [inhibitor, partial curve, poor fit] | – |
| CCOC(=O)c1ccc(NC(=O)CS(=O)(=O)Cc2nc(-c3ccc(C)cc3)oc2C)cc1 | inconclusive: 35.5 µM [activator, single point] | – |
| COCCCn1c(=N)c(C(=O)NC2CCCC2)cc2c(=O)n3cccc(C)c3nc21 | inactive | – |
| COc1ccc(N=Cc2c(O)[nH]c3ccccc23)cc1OC | inconclusive: 35.5 µM [inhibitor, single point] | – |

Given with bars between the fields: 21 of the compounds above
Compound | Potency | activity change, negative = inhibition
CC(=O)c1cc(F)ccc1OCC(=O)N1CCCc2ccccc21 | inconclusive: 3.98 µM [inhibitor, partial curve, poor fit] | –
O=C1/C(=C\c2ccc(O)c(O)c2)N=C2CCCCCN12 | inactive | –
CCCCOC(=O)NC(NCC(O)c1ccccc1)(C(F)(F)F)C(F)(F)F (stereo not drawn) | inconclusive: 29.1 µM [inhibitor, single point] | –
COc1ccc(-n2ccsc2=S)cc1 | inconclusive: 0.0517 µM [inhibitor, partial curve, poor fit] | –
Cc1ccc(F)cc1NC(=O)CSc1nc(-c2cccs2)cc(C(F)(F)F)n1 | inactive | –
Cc1c(C=O)c2cc(OCc3ccccc3)ccc2n1C | inconclusive: 3.55 µM [activator, partial curve, poor fit] | –
Cn1ncc2cc(NC(=S)NC(=O)c3ccccc3)ccc21 | inactive | –
O=C(O)C1CCC(Cn2c(SCc3cc(=O)n4cc(Cl)ccc4n3)nc3ccsc3c2=O)CC1 (stereo not drawn) | inactive | –
COc1cc(CN2CCN(Cc3ccccc3C(F)(F)F)CC2)cc(OC)c1OC | inconclusive: 7.94 µM [inhibitor, partial curve, poor fit] | –
O=C(CC(Nc1ccccc1Cl)C(=O)OCC(=O)c1cccs1)c1ccccc1 (stereo not drawn) | inactive | –
COc1ccc(C)cc1S(=O)(=O)N1CCCC(C(=O)NC2CC2)C1 (stereo not drawn) | inactive | –
CN(C)c1ccnc(Nc2ccc(F)cc2)c1C#N | inconclusive: 0.562 µM [activator, full curve, poor fit] | –
CCn1c(C(=O)N2CCCC(C(=O)O)C2)cc2sccc21 (stereo not drawn) | inactive | –
CC1CCN(CCCCOc2ccccc2Br)CC1 | inconclusive: 11.6 µM [inhibitor, partial curve, poor fit] | –
CC(=O)OC1C(O)C(C)OC(OC2C(OC(=O)C3CCC4C(C3)OC3(CC(OC(=O)/C=C/c5ccccc5)C(C)CO3)C43CO3)OC(C)C(O)C2OC(C)=O)C1O (stereo not drawn) | inconclusive: 0.0891 µM [inhibitor, full curve, poor fit] | –
CCCc1cc(=O)oc2cc(OC(C)C(=O)NCCCn3ccnc3)ccc12 (stereo not drawn) | inconclusive: 10 µM [inhibitor, partial curve, poor fit] | –
CCCCc1ccc(NC(=O)CSc2nc3ccccc3nc2N2CCCCC2)cc1 | inactive | –
Oc1ccccc1/C=N/Nc1nccnc1Cl | inconclusive: 4.11 µM [inhibitor, full curve, poor fit] | –
CCc1ccc(C(=O)CSc2nc3cc(S(=O)(=O)N4CCOCC4)ccc3n2CC)cc1 | inconclusive: 0.316 µM [inhibitor, partial curve, poor fit] | –
CCOC(=O)c1ccc(NC(=O)CS(=O)(=O)Cc2nc(-c3ccc(C)cc3)oc2C)cc1 | inconclusive: 35.5 µM [activator, single point] | –
COc1ccc(N=Cc2c(O)[nH]c3ccccc23)cc1OC | inconclusive: 35.5 µM [inhibitor, single point] | –

Carrying on:

| Compound | Potency | activity change, negative = inhibition |
| --- | --- | --- |
| CCCC/C(C)=N/NC(=O)CN(c1ccc(Br)cc1)S(=O)(=O)c1ccccc1 | inactive | – |
| CC1(C)Cc2c(C#N)c(NCCN3CCOCC3)nc(-c3ccco3)c2CO1 | inactive | – |
| CN(C)CCCN(C(=O)c1ccc(S(=O)(=O)N2CCCC2)cc1)c1nc2ccc(Br)cc2s1 | active: 10 µM | – |
| CC(C(=O)Nc1ccc(F)c(F)c1)N1CCN(C)CC1 (stereo not drawn) | inconclusive: 1.26 µM [inhibitor, partial curve, poor fit] | – |
| CCOC(=O)C1=C(CC)Nc2ccccc2N=C1NC(=O)Nc1ccc(Cl)c(Cl)c1 | inconclusive: 35.5 µM [inhibitor, single point] | – |
| CCOc1c(OC(C)=O)ccc(/C=C/c2ccc3cccc(OC)c3n2)c1[N+](=O)[O-] | inactive | – |
| COc1ccc2c(c1OC)C(=O)N(c1cccc(C)c1)C2=O | inactive | – |
| CC(=O)c1ccc2c(c1)C1C(Cl)C(Sc3ccccc3[N+](=O)[O-])CC1C(c1ccccc1)N2 (stereo not drawn) | inactive | – |
| CC(CN1CCN(C/C=C/c2ccccc2)CC1)c1ccccc1 (stereo not drawn) | inconclusive: 0.562 µM [activator, full curve] | – |
| O=c1oc2cc(Oc3c([N+](=O)[O-])cc(C(F)(F)F)cc3[N+](=O)[O-])ccc2c2c1CCCC2 | inconclusive: 29.1 µM [inhibitor, single point] | – |
| COC(=O)c1ccccc1NC(=O)c1cccc(NC(=O)c2ccc(Br)o2)c1C | inconclusive: 29.1 µM [inhibitor, single point] | – |
| CCOc1cc(NC(=S)NC)c(OCC)cc1NC(=O)c1ccco1 | inconclusive: 1.26 µM [activator, single point] | – |
| Cc1cc2nc(C)c(=O)n(C)c2cc1C | inconclusive: 35.5 µM [inhibitor, single point] | – |
| Cc1ccc(SCc2cc(=O)[nH]c(Nc3nc(C)c4ccc(C)cc4n3)n2)cc1 | inconclusive: 8.91 µM [inhibitor, partial curve, poor fit] | – |
| N#C/C(=C\c1c[nH]c2ccccc12)C(=O)Nc1ncc(Cc2ccc(Cl)cc2Cl)s1 | inconclusive: 17.8 µM [inhibitor, partial curve, poor fit] | – |
| O=[N+]([O-])c1ccc(NCCCNS(=O)(=O)c2ccccc2)c(Cl)c1 | inconclusive: 17.8 µM [inhibitor, partial curve, poor fit] | – |
| CCCCNC(=O)CN1C(=O)c2cccc(N)c2C1=O | inactive | – |
| COc1ccc(OCc2nn3c(-c4ccco4)nnc3s2)cc1 | inconclusive: 0.794 µM [activator, partial curve, poor fit] | – |
| CCOC(=O)c1ccc(NC(=O)CSc2nc3c(cc2C#N)N2CCC3CC2)cc1 | inconclusive: 1.41 µM [inhibitor, partial curve, poor fit] | – |
| O=C(CSc1nnnn1-c1ccccc1)c1cc2ccccc2oc1=O | inconclusive: 4.47 µM [activator, full curve] | – |
| CCOC(=O)CCSc1nc(N2CCOCC2)c2c(c1C#N)CC(C)(C)OC2 | inactive | – |
| COc1cc(C(C)=O)ccc1OCC(=O)N1CCc2ccccc2C1 | inactive | – |
